In PubChem BioAssay AID638 (SRMLSC, 2007):
About 65 (5%) of roughly 1,300 compounds were called active.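 How the source made its calls: active means growth inhibition reaching a set limit at one or more tested doses; inactive means the rest.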 This is one part of the list. Potency and affinity values are given separately.

experiment: growth inhibition of wild-type E. coli, dose response, BW25113 wild type, OD615 (AID 638); details: at 100 µM (top of the series) unless noted
Summary of the method: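 Assay system: E. coli BW25113 wild type; buffer or medium: Kanamycin-supplemented LB broth; signal: optical density (absorbance) at 615 nm; controls: chloramphenicol 30 µM control; doses: compound concentration series; times: bacterial exposure to compound 20 h at 37 °C; evaluation: IC50 from 4-parameter logistic, bounds fixed 0–100%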

Growth inhibition, inactive:
CCCN(CCC)c1nc2ccccc2nc1C(C#N)C(=O)OCCOC (stereo not drawn) -4.58%, O=C(Oc1ccccc1)c1cc2ccccc2o1 7.26%, COc1ccccc1-c1cc(C(=O)NC(C)c2ccccc2)no1 (stereo not drawn) -6.27%, CCSC1=C(C#N)C(c2ccc(Cl)cc2)C2=C(CCCC2=O)N1 (stereo not drawn) 11.6%, O=C(Nc1nc(-c2cc(Cl)sc2Cl)cs1)c1cccs1 -7.16%, CCOC(=O)c1cnc(-n2nc(C)cc2C)nc1Nc1ccc(N(C)C)cc1 -9.22%, O=C(NC12CC3CC(CC(C3)C1)C2)c1ccccc1O 13.4%, O=C(COc1ccc2ccccc2c1Br)N1CCN(c2ccccn2)CC1 -12.5%, CC(C)c1ccc(-c2nnn(Cc3nc4ccccc4s3)n2)cc1 11.7%, O=C1CC(c2ccco2)CC2=C1C1c3ccccc3C(=O)N1c1ccccc1N2 (stereo not drawn) -3.27%, c1ccc(CC2CCN(c3nnnn3-c3ccccc3)CC2)cc1 -7.68%, CCCCN(CCCNC(=O)CN1C(=O)COc2ccccc21)c1ccccc1 6.07%, COc1ccc(-c2[nH]ncc2-c2cnn(-c3ccccc3)c2)c(O)c1 0.4%, Cn1c(=O)n(CCc2ccccc2)c(=O)c2c1nc1n2CCCN1CCc1ccccc1 -24.7%, Cc1ccccc1-c1nc(CS(=O)(=O)CC(=O)N2CCc3ccccc3C2)c(C)o1 -10.7%, Cc1ccc(-c2noc(CSc3nnnn3C3CCCCC3)n2)cc1 -3.03%, CCCc1nc(SCC(=O)N2CCCc3ccccc32)c2c(=O)n(C)c(=O)n(C)c2n1 -22%, Cc1cccc(N=c2oc3cc(O)ccc3cc2C(N)=O)c1 5.71%, CCOC(=O)N1CCc2c(sc(NC(=O)c3ccc(Cl)s3)c2C(N)=O)C1 -4.25%, CCNc1nc(NC(C)C)nc(N(C#N)Cc2ccccc2)n1 2.21%, Clc1ccc(OCc2nc(-c3ccccn3)n[nH]2)cc1 14.2%, Cc1ccc(C2c3c(-c4ccccc4O)n[nH]c3C(=O)N2Cc2ccncc2)cc1 (stereo not drawn) -4.25%, CCC(C(=O)Nc1ccccc1OC)n1c(C(=O)OC)cc2ccsc21 (stereo not drawn) -0.45%, O=C(Nc1ccccc1)Nc1ccc(S(=O)(=O)N2CCCCC2)cc1 14.5% [at 50 µM], COC(=O)c1c(C)oc2ccc(OC(=O)c3cccs3)cc12 -12.5%, O=C(COc1cccc(OC(F)F)c1)Nc1ccc(SC(F)F)cc1 12.4%, N#CC1=C(N)NC(SCc2ccccc2)=C(C#N)C12CCCCC2 12.1%, O=C(NCc1ccc2c(c1)OCO2)c1ccc(-c2ccc(Cl)cc2)o1 -1.94%, Cc1ccc(C)c2[nH]c(=O)c(CN(CC3CCCO3)S(=O)(=O)c3ccc4c(c3)OCCO4)cc12 (stereo not drawn) 2.71%, COCc1nnc(NC(=O)c2ccc(S(=O)(=O)N(C)c3ccccc3)cc2)o1 -7.12%, CCCc1ccc(OCc2ccc(C(=O)N3CCN(c4ccccn4)CC3)o2)c(OC)c1 -16.6%, N#CCSc1n[nH]c2nc3c(c(=O)n12)C1(CCCC1)Cc1ccccc1-3 0.5%, Cc1ccc(S(=O)(=O)c2nc(Nc3nccs3)sc2Cl)cc1 4.34%, Cc1cccc(-c2nc(CS(=O)CC(=O)NCCCSC3CCCCC3)c(C)o2)c1 (stereo not drawn) -13.6%, CCn1c(SC)nnc1-c1sc2cc(Cl)ccc2c1Cl 2.34%, CC(C)N(Cc1nc(-c2ccccc2)no1)C(=O)c1ccc(Cl)cc1 5.78%, CCOc1ccc2nc(NC(=O)CN3CCC(n4nnc5cc(F)ccc54)CC3)sc2c1 -10.8%, COc1ccc2[nH]c3c(=O)n(CCCCC(=O)N4CCC(C(N)=O)CC4)c(=S)[nH]c3c2c1 -15.3%, Cc1ccc(-c2nnc(N3CCN(c4ccccn4)CC3)c3ccccc23)cc1 -5.07%, O=C(CCSc1nnc2scc(-c3ccccc3)n12)Nc1nc(-c2ccccc2)ns1 -24.2%, CCCCNC(=O)c1sc(=S)n2c1[nH]c(=O)c1ccccc12 6.87%, CCCCn1c(NC(=O)c2ccccc2)c(C#N)c2nc3ccccc3nc21 -8.7%, Cc1ccc(-n2c(C)cc(C(=O)COC(=O)c3c(C)noc3C)c2C)cc1 -8.83%, COc1ccc2nc(NC(=O)CSc3nnnn3C3CCCCC3)sc2c1 17.8%, Cc1ccc(Cl)cc1N1CCN(C(=O)CCS(=O)(=O)c2cccc3nonc23)CC1 -4.01%, CCC(CC)c1nnc(NC(=O)c2c(-c3ccccc3)noc2C)s1 9.3%, CCOC(=O)c1c(N)sc2c(OC)c(Br)ccc12 4.47%, O=S(=O)(Nc1cccc2cccnc12)c1ccc(S(=O)(=O)N2CCCC2)cc1 -10.4%, COc1ccc(NC(=O)N(C2CCCCC2)C(C)c2ccco2)c(OC)c1 (stereo not drawn) -17%, Cc1c(NC(=O)Nc2ccc(Cl)c(Cl)c2)c(=O)n(-c2ccccc2)n1C 18%, COCc1nnc(NC(=O)c2ccc(S(=O)(=O)N3CCCCCC3)cc2)o1 4.41%, CCCCOc1ccccc1Cn1c(=O)oc2ccc(C)cc21 9.69%, Cc1cc(C(=O)OCc2nnc(-c3ccccc3)o2)c(C)n1-c1ccccc1 -1.68%, CCCCC(CC)CNC(=O)c1[nH]c(C)c(C(C)=O)c1C (stereo not drawn) 5.62%, CC(C)(C)C1CCC2(CC1)C(C#N)=C(SCC(=O)NC1CCCCC1)NC(=O)C2C#N (stereo not drawn) 12.2%, CCOC(=O)Cc1csc(NC(=O)c2ccc(S(=O)(=O)N3CCCCC3)cc2)n1 -9.76%, O=C(Nc1nnc(-c2ccc3c(c2)OCCO3)o1)c1ccc(Cc2ccccc2)cc1 -22.7%, N#Cc1nc(-c2ccc(OCc3ccccc3Cl)cc2)oc1NCCCn1ccnc1 19.2%
